The source of these data is article PMC9795202.

Assay [1] has as its target T1, ELF5 with C-terminal FLAG tag (UniProt Q8VDK3).
T1 sequence: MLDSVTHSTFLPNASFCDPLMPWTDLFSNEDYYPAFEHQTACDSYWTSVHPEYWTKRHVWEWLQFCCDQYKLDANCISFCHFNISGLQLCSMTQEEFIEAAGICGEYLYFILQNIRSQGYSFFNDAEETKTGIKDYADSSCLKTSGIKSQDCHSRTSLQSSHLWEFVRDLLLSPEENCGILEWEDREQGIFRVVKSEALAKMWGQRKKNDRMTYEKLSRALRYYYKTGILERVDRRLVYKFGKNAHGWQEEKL
Put plainly: co-IP; nuclear extract of Rcho1 cells stably expressing FLAG-tagged SATB1 or ELF5 (20 mM Tris-HCl pH 7.5, 2 mM EDTA, 0.3 M NaCl, 0.5% Triton X-100); anti-FLAG (M2) magnetic beads overnight; 8 washes in 50 mM Hepes-NaOH pH 7.9, 0.25 M KCl, 0.1% Triton X-100; eluted with FLAG peptide; Western blot. On the technique in general: Immunoblotting shows a protein as a band on a membrane.

Assay [2] deals with T2, SATB1 with N-terminal FLAG Tag (UniProt Q60611).
T2 sequence: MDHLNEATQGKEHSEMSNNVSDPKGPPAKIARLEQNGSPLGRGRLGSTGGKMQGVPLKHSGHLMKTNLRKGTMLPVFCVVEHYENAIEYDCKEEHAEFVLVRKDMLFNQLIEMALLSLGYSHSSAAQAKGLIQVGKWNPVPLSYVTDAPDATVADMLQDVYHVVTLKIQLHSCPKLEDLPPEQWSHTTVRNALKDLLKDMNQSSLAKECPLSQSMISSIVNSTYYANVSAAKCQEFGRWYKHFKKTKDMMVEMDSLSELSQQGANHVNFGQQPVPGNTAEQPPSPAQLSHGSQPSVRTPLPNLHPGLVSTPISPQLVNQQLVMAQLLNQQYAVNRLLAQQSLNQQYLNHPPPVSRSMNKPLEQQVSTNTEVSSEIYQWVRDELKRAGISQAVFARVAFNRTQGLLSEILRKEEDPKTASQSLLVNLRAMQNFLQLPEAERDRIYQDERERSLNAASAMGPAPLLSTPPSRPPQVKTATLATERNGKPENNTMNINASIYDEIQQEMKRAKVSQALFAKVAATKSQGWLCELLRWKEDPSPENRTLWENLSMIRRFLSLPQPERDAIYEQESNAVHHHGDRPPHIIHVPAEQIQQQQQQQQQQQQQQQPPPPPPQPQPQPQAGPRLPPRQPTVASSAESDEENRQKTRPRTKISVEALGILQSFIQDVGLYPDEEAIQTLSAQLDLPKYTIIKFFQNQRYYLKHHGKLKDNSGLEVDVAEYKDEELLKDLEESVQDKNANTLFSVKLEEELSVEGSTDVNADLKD
The assay is described as above.

No constants are given. Whether binding was seen depends on the method and setting. In cells and extracts the contact can be indirect. Binding calls can cover weak binding; strength is not graded here. Sequences can lack the tags named with a protein.

Take SATB1 (rat (endogenous in Rcho1)): in assay [1], the binding result is recorded as “binds”.

As to ELF5 (rat (endogenous in Rcho1)), in assay [2], the binding entry was “binds”.
